Reference: patent US20160346402A1
Results are given in words; binding and its absence hold for the method and conditions named. Some binding calls cover weakened binding; strength is not graded here.

Biological target: TPP-2618, TweakR-ECD-34-68-hIgGFc-His-R56A (human)
Test: ELISA: IgG coated at 1 µg/ml; 8-fold diluted HEK293 supernatant with the TWEAKR(34-68)-Fc-His mutein added; anti-HIS-HRP, Amplex Red; signal [Rfu]

B1: TPP-2090 (antibody, human IgG1, kappa, V domains shown)
VH: EVQLLESGGGLVQPGGSLRLSCAASGFTFSPYPMIWVRQAPGKGLEWVSYISPSGGSTHYADSVKGRFTISRDNSKNTLYLQMNSLRAEDTAVYYCARGGDTYFDYFDYWGQGTLVTVSS
VL: DIQMTQSPSSLSASVGDRVTITCRASQSISGYLNWYQQKPGKAPKLLIYQASSLQSGVPSRFSGSGSGTDFTLTISSLQPEDFATYYCQQSYTSPFITFGQGTKVEIKR
  binding: binds
